The experiment deals with GFP-CENP-A^Cnp1 (S. pombe) (UniProt Q9Y812). As to the kind of experiment: affinity purification with mass spectrometry.

By UniProt entry, the sequences of proteins in these tests, tags left out. Where a name states a change or a piece, a line headed by the entry shows the natural chain unless it says otherwise.
UniProt Q9Y812: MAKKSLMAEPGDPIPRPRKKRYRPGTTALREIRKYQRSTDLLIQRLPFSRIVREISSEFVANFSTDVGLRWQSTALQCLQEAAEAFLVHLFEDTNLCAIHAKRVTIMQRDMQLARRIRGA
UniProt O14148: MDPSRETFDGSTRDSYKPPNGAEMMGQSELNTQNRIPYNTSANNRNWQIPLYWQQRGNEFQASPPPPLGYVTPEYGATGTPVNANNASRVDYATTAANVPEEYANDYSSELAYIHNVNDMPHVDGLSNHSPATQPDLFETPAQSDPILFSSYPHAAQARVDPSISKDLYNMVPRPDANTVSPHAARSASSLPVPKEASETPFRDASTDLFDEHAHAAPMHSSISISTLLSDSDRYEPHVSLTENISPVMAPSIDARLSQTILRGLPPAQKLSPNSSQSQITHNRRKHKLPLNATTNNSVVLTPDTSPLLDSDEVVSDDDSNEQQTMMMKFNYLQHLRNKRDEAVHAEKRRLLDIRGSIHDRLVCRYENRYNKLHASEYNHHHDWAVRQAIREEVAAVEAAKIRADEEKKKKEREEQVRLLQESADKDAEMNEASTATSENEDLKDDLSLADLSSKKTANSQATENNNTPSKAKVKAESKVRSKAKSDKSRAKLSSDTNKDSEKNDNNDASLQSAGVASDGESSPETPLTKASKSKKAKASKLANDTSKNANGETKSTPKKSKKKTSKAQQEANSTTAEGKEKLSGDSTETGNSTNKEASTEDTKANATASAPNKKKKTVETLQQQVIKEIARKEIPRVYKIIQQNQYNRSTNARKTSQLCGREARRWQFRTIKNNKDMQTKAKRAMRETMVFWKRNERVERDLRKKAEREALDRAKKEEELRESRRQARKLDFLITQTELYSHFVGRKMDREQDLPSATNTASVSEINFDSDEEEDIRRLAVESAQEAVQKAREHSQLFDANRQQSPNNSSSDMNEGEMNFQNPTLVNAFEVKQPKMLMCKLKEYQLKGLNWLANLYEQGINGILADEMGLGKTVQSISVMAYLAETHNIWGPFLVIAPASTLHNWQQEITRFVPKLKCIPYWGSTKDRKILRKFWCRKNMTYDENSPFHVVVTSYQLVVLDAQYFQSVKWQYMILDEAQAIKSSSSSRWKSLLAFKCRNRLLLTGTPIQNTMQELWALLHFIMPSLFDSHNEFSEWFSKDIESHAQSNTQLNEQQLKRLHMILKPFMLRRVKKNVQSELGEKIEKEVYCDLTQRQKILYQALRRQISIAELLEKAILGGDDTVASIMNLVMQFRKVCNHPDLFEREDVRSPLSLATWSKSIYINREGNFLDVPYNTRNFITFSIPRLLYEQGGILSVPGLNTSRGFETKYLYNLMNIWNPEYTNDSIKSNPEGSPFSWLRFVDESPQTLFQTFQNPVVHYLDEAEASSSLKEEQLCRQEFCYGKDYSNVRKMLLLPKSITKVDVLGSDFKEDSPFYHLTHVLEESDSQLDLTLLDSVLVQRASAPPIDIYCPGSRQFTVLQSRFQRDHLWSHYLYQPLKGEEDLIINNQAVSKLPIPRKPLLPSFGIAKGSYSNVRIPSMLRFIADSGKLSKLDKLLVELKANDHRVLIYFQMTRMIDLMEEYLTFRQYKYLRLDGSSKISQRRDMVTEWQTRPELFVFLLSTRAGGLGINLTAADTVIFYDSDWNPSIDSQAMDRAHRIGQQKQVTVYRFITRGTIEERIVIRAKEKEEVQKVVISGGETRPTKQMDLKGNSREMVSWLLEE
UniProt P48003: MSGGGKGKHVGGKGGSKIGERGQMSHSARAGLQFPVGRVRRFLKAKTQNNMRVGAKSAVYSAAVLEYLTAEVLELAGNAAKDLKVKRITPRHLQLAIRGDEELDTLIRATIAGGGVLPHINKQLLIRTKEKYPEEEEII
UniProt Q9US25: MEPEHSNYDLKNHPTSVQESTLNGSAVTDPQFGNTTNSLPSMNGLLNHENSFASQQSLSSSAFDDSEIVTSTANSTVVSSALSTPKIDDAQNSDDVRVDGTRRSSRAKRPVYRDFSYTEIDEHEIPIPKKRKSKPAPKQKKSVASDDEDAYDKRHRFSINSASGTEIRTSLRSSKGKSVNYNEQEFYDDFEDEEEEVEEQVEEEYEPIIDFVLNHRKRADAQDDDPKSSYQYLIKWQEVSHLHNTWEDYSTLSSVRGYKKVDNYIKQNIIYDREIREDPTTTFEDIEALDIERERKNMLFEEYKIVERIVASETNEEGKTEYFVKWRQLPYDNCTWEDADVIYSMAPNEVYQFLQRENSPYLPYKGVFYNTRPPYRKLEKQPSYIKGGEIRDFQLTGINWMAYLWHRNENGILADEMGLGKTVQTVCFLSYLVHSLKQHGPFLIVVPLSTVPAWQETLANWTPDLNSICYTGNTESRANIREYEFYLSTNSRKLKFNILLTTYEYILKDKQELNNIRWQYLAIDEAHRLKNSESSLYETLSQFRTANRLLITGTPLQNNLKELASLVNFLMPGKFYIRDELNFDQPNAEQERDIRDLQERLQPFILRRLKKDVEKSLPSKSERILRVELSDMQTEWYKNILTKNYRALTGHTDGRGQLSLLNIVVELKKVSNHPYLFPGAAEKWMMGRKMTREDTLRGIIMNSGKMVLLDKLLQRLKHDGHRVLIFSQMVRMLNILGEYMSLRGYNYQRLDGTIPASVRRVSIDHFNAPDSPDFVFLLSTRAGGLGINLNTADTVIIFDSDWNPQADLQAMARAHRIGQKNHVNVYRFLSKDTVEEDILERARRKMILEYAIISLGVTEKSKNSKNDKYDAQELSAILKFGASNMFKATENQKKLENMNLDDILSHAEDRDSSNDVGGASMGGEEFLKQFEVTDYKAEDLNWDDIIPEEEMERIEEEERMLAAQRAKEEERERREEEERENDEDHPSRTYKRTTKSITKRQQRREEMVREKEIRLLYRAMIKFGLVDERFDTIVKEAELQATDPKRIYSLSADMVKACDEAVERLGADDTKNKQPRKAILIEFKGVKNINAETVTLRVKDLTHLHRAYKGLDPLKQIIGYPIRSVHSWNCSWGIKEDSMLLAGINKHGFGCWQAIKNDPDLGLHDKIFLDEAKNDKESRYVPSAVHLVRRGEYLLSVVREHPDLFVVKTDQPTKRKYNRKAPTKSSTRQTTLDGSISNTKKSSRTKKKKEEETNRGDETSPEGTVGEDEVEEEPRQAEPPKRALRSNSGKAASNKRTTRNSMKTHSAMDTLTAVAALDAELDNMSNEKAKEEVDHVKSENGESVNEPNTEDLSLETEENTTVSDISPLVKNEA

Results are given in words; binding and its absence hold for the method and conditions named. In cells and extracts the contact can be indirect. These calls come from enrichment with a bait or labelling near it, and not all partners need be listed.

Among the data in doi:10.1101/215962 are binding values, retold here.

In the case of Ino80 (from UniProt O14148 1-1604), the binding entry was “binds”.

Take “histone variant H2A.Z (encoded by the pht1+ gene in S. pombe) (from UniProt P48003 1-139)”: the binding entry is listed as “binds”.

As to Hrp1^Chd1 (from UniProt Q9US25 1-1373), the binding entry is on record as “binds”.

B1: Cnp3^CENP-C (protein, UniProt Q9USR9 1-643)
chain: MTMNETSAIPARQRENQFFEIGVVGRKTGFTVPRDVKKGDDGFEDMDAYFLSDGSIHLDEDNGDIEQDMPPVTRLQPTSPMAVNAASDEASHASSSDSSDKNPDIPSSPLLMNSRALRASRGSSGPLIVPIDHSAFQAEDEGTADKTKVDGNKLSIQPRKANRIVDFSRIKASPDRKKFEPRRSTELPSKIPSSTPKDDNVQESPAFPDENITALQKNVANFTSIKDSGGRDNLYIQTISKPRRSYVQNNKSEQTIKPSKQNKQKEEKKTISQGNKPNSRDEDSELSIDVPLSMLNRSLANNSQKNKKRTPNKPLQESSINSVKEGESNPVVKRKRGRPRKNKLEIGNSVQTSEATQVKGAKKPAIRNAKKMSNEKDDSLNSQSDSASGEFIKTIARNNLQEIKQVEREDTLVGVRRSKRTRIAPLAFWKNERVVYELHRDENRIPALPEVKQIIRVDDPSPSIRQGRKKRHAKRSGVEIKSNLEAKSNDVEEYDAFYKDEINCEVLSWNEQNPKASEERVVGYSLPSVNLQQISNQQLKFASLFKEEPSFAAGVVEMPAGAEKPVKPSKHNIMSFCILQGKIEVTVNATTFRMKKDGVFIVPRGNYYSIKNIGKEAVRLYYTHATDTLENKRRGIGDFPNER
In the case of B1, the binding result is reported as “binds”.

B2: Sim3^NASP (protein, UniProt Q9USQ4 1-396)
chain: MSSDTKTLENSKGNSATDADTKNPSSSDSRAIEQLVTQGNMAYAQKNYEEAVDKYGQALMQSESIHGSESLENRNVLWLYGKSLFQIAIENSQVLGNALGAKESVSQATESFEEPEAIGSFTFSGQKIENKYTVNEENSSIAHPEKESEEKETNEASPASEEDEDDFNVAWEVLDLTRVMQSKAVDAYPDSKDEKIRLADIYDLLGELSLEIENFSQASQDLKTALEWKEKVYNVSNNTLLSEAHYKLALALEFTNPEDPSNKSRACEHVEKAAEILKNVLNERENEVTDKKGKGKQKAEESTLTSDLENLREMLSELEQKTLDLKHGAPSLEEAVMSKMHESSLLSKDSSSLAQAVAEAVKNANDLGGLVKRKRTKQEVTSSSQKEGPKDKKKKD
As to B2, the binding result is “binds”.
